Values joined by “and” are separate entries in the source; they are usually repeats but may differ in a detail not shown here. Identical values can stand only once. The campaign covered roughly 410,000 compounds. About 18,000 (4.4%) were called active. Inconclusive results, whose numbers are uncertain, are shown with a selection of clear calls. No stated cut-off is given here; in the data, active means activity change below about -60%; inconclusive means no clear call, values can overlap the other calls; inactive means above about -39%.
experiment: qHTS Assay for inhibitors of the human cytomegalovirus (HCMV); settings: HFF cells, HCMV-luciferase reporter, 72 h; at 57.5 µM; active compounds read low
Outline: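 Cell-based, HFFs, 1000 cells/well, 16 h 37C; cpds in DMSO + HCMV-luc, MOI 1 PFU/cell; 72 h 37C; OneGlo luminescence after 5 min RT; norm. to buffer vs Salinomycin 10uM.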
On the % scale 0 is the no-effect control and ±100 the full control effect.

Row | Structure (SMILES) | activity change, negative = inhibition
1 | CCc1ccccc1NC(=O)Cn1c(=O)n(Cc2ccc3c(c2)OCO3)c(=O)c2ccc(C(=O)NC3CCCCC3)cc21 | inactive: 32.3%
2 | Cc1ccccc1C(=O)Nc1ccc(-c2nc3ccc(C(=O)c4ccccc4)cc3[nH]2)cc1 | inconclusive: -57.3%
3 | NC(=O)CSc1ncc(-c2ccc([N+](=O)[O-])cc2)[nH]1 | inactive: -34%
4 | O=C(NNc1nc2ccccc2s1)c1ccccc1F | active: -67.1%
5 | Cc1noc(C)c1C(=O)N1CCC1(C)C(=O)NS(=O)(=O)c1cccc(F)c1 (centres undefined) | inconclusive: -41.9%
6 | CCc1ccc2nc(N(CCCN(C)C)C(=O)c3ccc(S(=O)(=O)N4CCCc5ccccc54)cc3)sc2c1 | active: -89.2%
7 | C(=C\c1ccccc1)/CNn1cnnc1 | inactive: -4.25%
8 | COc1cccc(-n2nnnc2SCC(=O)Nc2ccc(OC)cc2OC)c1 | inactive: -9.57%
9 | CCN(CC)S(=O)(=O)c1ccc2c(c1)nc(CCC(=O)Nc1ccc3c(c1)OCO3)n2C | inconclusive: -45.9%
10 | CCOc1ccc2c(c1)S/C(=C\c1cccs1)C(=O)N2 | inconclusive: -41.2%
11 | COc1cc(C(O)c2nc(C(=O)NCCN3CCOCC3)cs2)cc(OC)c1OC (centres undefined) | inactive: -18%
12 | CC(=O)c1cccc(NC(=O)Nc2c(C)nn(C)c2C)c1 | inconclusive: -44.8%
13 | O=C(CSCc1ccccc1Cl)N1CCN(c2ccc(F)cc2)CC1 | inconclusive: -46.9%
14 | CCCOc1ccc(N2C(=O)C3ON(c4ccccc4)C(CCC)C3C2=O)cc1 (centres undefined) | inconclusive: -49.2%
15 | CC(/C=N/NC(=O)c1nnn(-c2nonc2N)c1CN(C)C)=C\c1ccco1 | inconclusive: -50.2%
16 | Cc1ccc(C(=O)NCc2ccc(N(C)C)cc2)cc1NC(=O)c1nsc2ccccc12 | inactive: 33.2%
17 | CC1(C(=O)O)CCCN(C(=O)c2ccc(F)cc2Cl)C1 (centres undefined) | inconclusive: -47%
18 | CCOC(=O)C1=C[C@@H](C(C)(C)C)N(S(=O)(=O)c2ccc(C)cc2)[C@H]1c1ccc(F)cc1 | inconclusive: -59.3%
19 | COCCCNC(=O)CN1C(=O)/C(=C\c2ccc(C)cc2)Sc2ccccc21 | inconclusive: -47.1%
20 | COc1ccc(N=C2NC(=O)/C(=C/c3ccco3)S2)cc1 | active: -67.5%
21 | Cc1cc2ncn(CCCCOc3ccccc3)c2cc1C | inconclusive: -59.5%
22 | COC(=O)[C@@]12C[C@@H](CC(=O)NCc3cccs3)C(=O)N(CCc3ccc(OC)c(OC)c3)C1=CCC(C)(C)C2 | inconclusive: -52.7%
23 | CC1CCN(C(=O)c2cccc(S(=O)(=O)N3CCN(c4ccccc4)CC3)c2)CC1 | inactive: -20.6%
24 | Cc1cccc(NC(=O)c2ccc(N(Cc3ccccc3)S(C)(=O)=O)cc2)c1 | active: -66%
25 | CC1CCc2sc3ncn4nc(C(=O)NCc5ccco5)nc4c3c2C1 (centres undefined) | inconclusive: -44.2%
26 | COc1ccc(NS(=O)(=O)c2cccc(C(=O)N/N=C(/C)c3ccc(-n4ccnc4)cc3)c2)cc1 | inactive: 20.1%
27 | COc1ccc(CNC(=O)c2cnc3sc(N4CCCC4)nn3c2=O)cc1OC | inactive: -6.75%

Row | Structure (SMILES) | activity change, negative = inhibition
28 | O=C(CSc1c2c(nc3ccc(Cl)cc13)CCCC2)N1CCN(c2cccc(Cl)c2)CC1 | inactive: -27.1%
29 | CCOC(=O)c1c(C)n(C)c2ccc(O)c(CN(C)C)c12 | inconclusive: -45.1%
30 | COCCC(=O)N1CCC(Oc2ccc(C(=O)N3CCC(N(C)C)C3)cc2)CC1 (centres undefined) | inconclusive: 0%
31 | CCc1nn2c(=O)cc(COC(=O)c3cccc(NC(=O)c4ccccc4Cl)c3)nc2s1 | inactive: 49.1%
32 | Cc1cccc2nc(-c3ccco3)c(Nc3ccc4c(c3)OCO4)n12 | inactive: 1.13% and inactive: 0%
33 | CCCCc1nc2ccccc2c(=O)n1-c1ccc(Cl)cc1[N+](=O)[O-] | active: -62.3%
34 | Cc1nc2ccccc2cc1C(=O)N/N=C/c1cccc([N+](=O)[O-])c1 | inconclusive: -48.3%
35 | CC1Sc2ccc(S(=O)(=O)CCC(=O)Nc3ccc(C(C)C)cc3)cc2NC1=O (centres undefined) | inconclusive: -44.4%
36 | CCc1ccc(CN(C)CCc2ccccn2)cc1 | inconclusive: -40.7%
37 | CCN(CC)c1cc(C)c2cc(NC(=O)c3cccc(OC)c3)ccc2n1 | active: -70.9%
38 | CCc1ccc(-c2nc(CSCC(=O)N3CCN(c4ncccn4)CC3)c(C)o2)cc1 | inconclusive: -53.1%
39 | Cc1ccccc1CN1CCN(S(=O)(=O)c2ccc(F)cc2)CC1 | inactive: 0.105%
40 | CS(=O)(=O)c1ccc(Sc2nc3ccccc3[nH]2)c([N+](=O)[O-])c1 | inconclusive: -41.2%
41 | CC(C)(O)C#Cc1ccc(CN2CCC(n3nccc3NC(=O)C3CC3)CC2)cc1 | inactive: -21.9%
42 | CCOc1cc(S(=O)(=O)n2cnc(C)c2)ccc1Cl | inconclusive: -54.9%
43 | COCc1cc(=O)n2c([nH]c3ccccc32)c1C#N | inactive: 32%
44 | CCN(CC)C(=O)Cn1cc(C(=O)C(=O)NCCCN2CCCCC2)c2ccccc21 | inactive: -8.18%
45 | COc1ccc(CN(C(=O)COc2ccccc2OC)C2CCS(=O)(=O)C2)cc1 (centres undefined) | inactive: 4.38%
46 | CCOC(=O)c1ccc(N/C=C/C(=O)c2ccc(OC)c(OC)c2)cc1 | inconclusive: -41.6%
47 | COc1ccc(NC(=O)CSc2nc(-c3cccs3)cc(C(F)(F)F)n2)cc1OC | active: -68.7%
48 | CCOCc1nnc(NC(=O)COc2ccc3c(c2)OCO3)s1 | inconclusive: -46.2%
49 | CCc1ccccc1NC(=O)c1ccc([N+](=O)[O-])s1 | inconclusive: -42.8%
50 | COc1ccccc1NS(=O)(=O)c1cc(NC(=O)CNC(=O)c2cc(C)cc(C)c2)ccc1C | inconclusive: -49.9%
51 | COc1ccc(-c2cc(C(=O)Nc3nc4ccccc4s3)c3ccccc3n2)cc1OC | inactive: 2.17%
52 | COC(=O)c1ccc(NC(=O)CCS(=O)(=O)c2ccc(Br)cc2)cc1 | inconclusive: -47.2%
53 | COc1cccc(C(CC(=O)Nc2cccc3ccccc23)NC(=O)c2ccccc2)c1 (centres undefined) | inconclusive: -45.4%
54 | CCOc1ccccc1CN(CCc1ccc2c(c1)OCO2)Cc1ccc(CC)cc1 | inconclusive: -40.2%
